Measurements as given in patent US20060035272A1.
These are yes or no findings as the source states them, for the method shown. Some results given as binding are weak or reduced against the parent protein; the word gives no strength.

Amino acid sequences for entries named in this document (tags omitted). A change or cut given only in a name is not applied to a line headed by its entry. Residues count along the entry.
UniProt P04386: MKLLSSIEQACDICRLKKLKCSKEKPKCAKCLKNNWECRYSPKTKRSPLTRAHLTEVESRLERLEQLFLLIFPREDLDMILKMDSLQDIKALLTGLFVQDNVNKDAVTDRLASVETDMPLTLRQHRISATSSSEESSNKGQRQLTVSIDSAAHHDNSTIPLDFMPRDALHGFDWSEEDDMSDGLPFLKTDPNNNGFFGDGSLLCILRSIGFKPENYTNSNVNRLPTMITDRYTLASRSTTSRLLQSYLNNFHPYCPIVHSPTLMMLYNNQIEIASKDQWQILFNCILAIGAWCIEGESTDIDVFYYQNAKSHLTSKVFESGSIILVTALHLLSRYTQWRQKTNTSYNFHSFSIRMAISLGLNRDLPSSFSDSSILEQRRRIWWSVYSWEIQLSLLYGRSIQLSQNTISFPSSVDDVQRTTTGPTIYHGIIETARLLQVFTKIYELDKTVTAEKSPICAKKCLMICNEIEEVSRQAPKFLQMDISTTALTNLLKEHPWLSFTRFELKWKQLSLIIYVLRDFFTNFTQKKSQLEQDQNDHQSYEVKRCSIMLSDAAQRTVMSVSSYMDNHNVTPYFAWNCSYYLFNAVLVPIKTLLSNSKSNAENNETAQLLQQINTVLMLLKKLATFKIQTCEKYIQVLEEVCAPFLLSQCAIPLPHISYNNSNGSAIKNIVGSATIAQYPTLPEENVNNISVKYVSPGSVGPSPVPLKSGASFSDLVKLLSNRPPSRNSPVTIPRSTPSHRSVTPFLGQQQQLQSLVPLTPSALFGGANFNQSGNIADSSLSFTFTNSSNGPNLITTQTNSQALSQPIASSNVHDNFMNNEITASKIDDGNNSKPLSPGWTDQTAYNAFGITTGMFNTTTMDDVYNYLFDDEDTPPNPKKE
UniProt Q14186: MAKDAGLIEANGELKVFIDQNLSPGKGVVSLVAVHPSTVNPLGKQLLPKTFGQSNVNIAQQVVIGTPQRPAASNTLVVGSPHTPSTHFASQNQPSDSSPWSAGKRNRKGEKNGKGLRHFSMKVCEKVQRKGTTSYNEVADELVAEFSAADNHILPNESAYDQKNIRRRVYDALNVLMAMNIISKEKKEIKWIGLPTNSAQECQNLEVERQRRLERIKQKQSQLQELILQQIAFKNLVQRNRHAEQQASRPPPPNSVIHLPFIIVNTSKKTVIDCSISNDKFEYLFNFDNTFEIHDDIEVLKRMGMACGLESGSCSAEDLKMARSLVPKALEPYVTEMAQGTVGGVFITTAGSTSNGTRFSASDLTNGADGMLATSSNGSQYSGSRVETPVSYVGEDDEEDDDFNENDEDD
UniProt Q8R0K9, residues 2-410: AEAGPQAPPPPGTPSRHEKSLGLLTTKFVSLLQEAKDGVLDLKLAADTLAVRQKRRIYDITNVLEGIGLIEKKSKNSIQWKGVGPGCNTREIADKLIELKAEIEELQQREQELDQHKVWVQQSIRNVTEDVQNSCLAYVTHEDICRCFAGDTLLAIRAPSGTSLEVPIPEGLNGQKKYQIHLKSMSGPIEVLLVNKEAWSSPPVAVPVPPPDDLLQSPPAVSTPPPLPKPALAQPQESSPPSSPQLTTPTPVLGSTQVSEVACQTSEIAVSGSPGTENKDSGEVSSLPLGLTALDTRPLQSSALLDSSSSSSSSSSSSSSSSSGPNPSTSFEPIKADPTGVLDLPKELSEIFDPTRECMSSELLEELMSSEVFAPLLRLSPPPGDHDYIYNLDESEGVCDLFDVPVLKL
UniProt Q61502: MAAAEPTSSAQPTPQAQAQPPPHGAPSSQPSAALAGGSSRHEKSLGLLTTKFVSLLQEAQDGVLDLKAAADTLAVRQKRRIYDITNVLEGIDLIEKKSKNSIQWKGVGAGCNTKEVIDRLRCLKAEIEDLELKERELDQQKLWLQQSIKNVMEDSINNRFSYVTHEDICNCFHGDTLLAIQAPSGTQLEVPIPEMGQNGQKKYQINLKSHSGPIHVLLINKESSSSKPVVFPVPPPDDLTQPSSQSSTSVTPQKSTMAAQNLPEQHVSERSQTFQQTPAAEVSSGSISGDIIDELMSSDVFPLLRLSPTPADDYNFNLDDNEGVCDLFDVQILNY

Columns and labels:
[1] = molecular target: T1, full length human DP1 fused at its N-terminus to the GAL4 DNA binding domain (encoded by vector pMAB32) (human) (UniProt P04386+Q14186); assay: yeast two-hybrid selection, GAL4 AD-cDNA prey against GAL4 DB-DP1 bait
[2] = molecular target: T1, full length human DP1 fused at its N-terminus to the GAL4 DNA binding domain (encoded by vector pMAB32) (human); assay: yeast two-hybrid in strain MaV203, HIS3 reporter; GAL4 AD-cDNA prey against GAL4 DB-DP1 bait; clones identified by PCR

Substance	binding [1]	binding [2]
E2F4 cDNA clone from a mouse brain cDNA library, fused to the GAL4 Activation Domain (vector pMAB58) (from UniProt Q8R0K9 2-410)	binds	binds
E2F5 cDNA clone from a mouse brain cDNA library, fused to the GAL4 Activation Domain (vector pMAB58) (from UniProt Q61502 1-335)	binds	binds
